According to PubChem BioAssay AID624297 (National Center for Advancing Translational Sciences (NCATS), 2012):
The whole screen tested about 340,000 compounds, of which about 6,200 (1.8%) were called active. The shares of active, inactive and inconclusive entries below differ from those in the screen. The call rests on the fitted dose curve; in most records, active means well fitted activation curve with a large enough effect; inconclusive means small, poorly fitted or top-dose-only effect; inactive means no such curve, though single readings can be large or run the other way. Potencies beside an inconclusive call are fits to weak or partial responses and may not hold up.

Assay: A quantitative high throughput screen for small molecules that induce DNA re-replication in SW480 colon adenocarcinoma cells. Further: nearly all actives have a fitted effect of over 55% in size. On re-replication activation: % of control where 0% means no effect.
Details: Hoechst DNA content imaging, 48 h; re-replication activation: at 46.1 µM (top of the series) unless noted
Outline: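 Hoechst fluorescence of nuclei (405 nm excitation, 500-530 nm emission) measured by plate-scanning imager after 48 hr compound exposure at 37 C; re-replication scored as increased number of nuclei with elevated intensity.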
Potency means the concentration at half of the fitted maximal effect.

Question: Which Potency does the source give for `Cc1ccc(SCc2ccc(C(=O)Nc3cc([N+](=O)[O-])ccc3C)cc2)cc1` here?
Answer: The Potency was inconclusive: 29.1 µM [activator, single point].

Question: With `O=C(NC(=S)Nc1nc(-c2ccc([N+](=O)[O-])cc2)cs1)c1ccco1` as the compound, how does the “re-replication activation” value read?
Answer: Its value is inactive: 0.464%.

Question: With `COc1ccc(C2CC(c3cccc(Br)c3)=NN2c2ccc(S(N)(=O)=O)cc2)cc1` (stereo not given) as the compound, how does the Potency read?
Answer: Its Potency is inconclusive: 0.651 µM [activator, full curve, poor fit].

Question: For `O=C(O)c1cccc(-n2c(/C=C/c3ccccc3)nc3ccccc3c2=O)c1`, which Potency is on record?
Answer: The Potency was inconclusive: 23.1 µM [activator, single point].

Question: Which Potency does the source give for `Cc1ccc(S(=O)(=O)Nc2cc(Cl)c(O)cc2C)cc1` here?
Answer: Its Potency is inconclusive: 23.1 µM [activator, single point].

Question: Which Potency does the source give for `COc1ccc(CN2CCC3CC2c2cc(-c4cccc(C)c4)ccc23)cc1` (stereo not given) here?
Answer: The Potency was inconclusive: 2.59 µM [activator, single point].

Question: Which Potency does the source give for `CNCCCCOc1ccccc1-c1ccccc1` here?
Answer: The Potency was inconclusive: 29.1 µM [activator, single point].

Question: Which Potency does the source give for `Oc1[nH]c2ccc(Br)cc2c1N=NC(=S)N1CCOCC1` here?
Answer: The Potency was inconclusive: 2.59 µM [activator, full curve].

Question: Which Potency does the source give for `CN(C)C(=O)CSc1nnc(-c2cc(-c3cccs3)nc3ccccc23)o1` here?
Answer: Its Potency is inconclusive: 20.6 µM [activator, single point].

Question: With `Cc1ccc(NC2CCCN(C(=O)CSc3ccncc3)C2)cc1C` (stereo not given) as the compound, how does the Potency read?
Answer: Its Potency is inconclusive: 29.1 µM [activator, single point].

Question: With `Cc1onc(-c2ccccc2)c1C(=O)Nc1nnc(-c2ccncc2)s1` as the compound, how does the “re-replication activation” value read?
Answer: Its value is inactive: -0.202%.

Question: Which “re-replication activation” value does the source give for `COc1ccc(C(C(=O)NC2CCCCC2)N(Cc2ccco2)C(=O)c2snc(C(N)=O)c2N)cc1` (stereo not given) here?
Answer: The value was inactive: 12.1%.

Question: With `Cc1ccc(-c2ccc(/C=N\NC(=O)C3C(=O)NCC3c3ccccc3)o2)cc1Cl` (stereo not given) as the compound, how does the Potency read?
Answer: The Potency was inconclusive: 17.8 µM [activator, partial curve, poor fit].

Question: For `Cc1ccc(C(=O)OCC(=O)N(CC(C)C)c2c(N)n(Cc3ccccc3)c(=O)[nH]c2=O)o1`, which Potency is on record?
Answer: The Potency was inconclusive: 23.1 µM [activator, partial curve, poor fit].

Question: Which “re-replication activation” value does the source give for `Cc1ccc2[nH]c(O)c(N=Nc3ccccc3[N+](=O)[O-])c2c1` here?
Answer: Its value is inactive: -2.57%.

Question: For `CC1CCc2c(sc(Nc3nc4c(F)cccc4s3)c2C(N)=O)C1` (stereo not given), which Potency is on record?
Answer: The Potency was inconclusive: 18.4 µM [activator, single point].

Question: For `C[C@]12c3[nH]c4ccccc4c3CCN1C(=O)C(CC(=O)NCc1ccco1)C[C@@H]2C(=O)N1CCCCC1` (stereo not given in full), which Potency is on record?
Answer: The Potency was inconclusive: 32.6 µM [activator, partial curve, poor fit].

Question: Which Potency does the source give for `Cc1[nH]c2ccc(C(=O)N3CCN(c4ccccc4Cl)CC3)cc2c1C` here?
Answer: Its Potency is inconclusive: 16.4 µM [activator, single point].

Question: For `COc1ccc(C(=O)NNC(=O)CN2CCC(n3nnc4cc(C(F)(F)F)ccc43)CC2)cc1`, which “re-replication activation” value is on record?
Answer: Its value is inactive: -3.05%.

Question: For `COc1ccc(NC(=O)CN(C)C(=O)CCNS(=O)(=O)c2ccc(Br)cc2)cc1`, which “re-replication activation” value is on record?
Answer: Its value is inactive: -19.3%.

Question: With `COC(=O)C1CCN(C(=O)C2CCN(C(=O)[C@H](C)NS(=O)(=O)c3ccc(C)cc3)CC2)CC1` as the compound, how does the Potency read?
Answer: Its Potency is inconclusive: 23.1 µM [activator, single point].

Question: Which “re-replication activation” value does the source give for `CCn1ncc(C2=NOC(C(=O)Nc3c(C)n(C)n(-c4ccccc4)c3=O)C2)c1C` (stereo not given) here?
Answer: The value was inactive: -9.57%.

Question: Which Potency does the source give for `Nc1ncnc2c1ncn2[C@@H]1O[C@H](CNCc2ccccc2OCc2ccc(Cl)cc2Cl)[C@@H](O)[C@H]1O` here?
Answer: Its Potency is inconclusive: 16.4 µM [activator, single point].

Question: With `Cn1c2ccccc2c(=O)c2ccc(C#CC3(O)CCCCC3)cc21` as the compound, how does the Potency read?
Answer: Its Potency is inconclusive: 20.6 µM [activator, single point].

Question: For `O=C(Cc1ccc(-n2cccc2)cc1)NCc1ccccc1Cl`, which Potency is on record?
Answer: The Potency was active: 18.4 µM.

Question: For `C=CCN=c1scc(C)n1/N=C/c1ccc(O)c(O)c1`, which Potency is on record?
Answer: Its Potency is inconclusive: 20.6 µM [activator, single point].

Question: Which Potency does the source give for `Cc1ccc(SCCNC(=O)c2ccc(C)c(S(=O)(=O)Nc3ccccc3C)c2)cc1` here?
Answer: The Potency was inconclusive: 14.6 µM [activator, partial curve, poor fit].

Question: For `CN(C)c1ccc(S(=O)(=O)N2CCCCC2)cc1NC(=O)C1CSC2(C)CCC(=O)N12` (stereo not given), which “re-replication activation” value is on record?
Answer: The value was inactive: -18.6%.

Question: Which Potency does the source give for `COc1ccccc1-c1cc(-c2ccccc2)nc(SC(C(N)=O)c2ccccc2)c1C#N` (stereo not given) here?
Answer: The Potency was active: 9.2 µM.

Question: Which Potency does the source give for `O=C(Nc1ccccc1F)C1CCCN(S(=O)(=O)c2ccccc2)C1` (stereo not given) here?
Answer: Its Potency is inconclusive: 6.51 µM [activator, single point].

Question: Which Potency does the source give for `CC(C)(C)C#CCn1c(/C=[N+](\[O-])C2CCCCC2)nc2ccccc21` here?
Answer: The Potency was inconclusive: 18.4 µM [activator, partial curve, poor fit].

Question: With `Cc1nc2ccccc2c(=O)n1/N=C/c1ccccn1` as the compound, how does the Potency read?
Answer: Its Potency is inconclusive: 16.4 µM [activator, single point].

Question: With `CC(=O)Nc1ccc(/C=C/c2noc(-c3ccccc3O)n2)cc1` as the compound, how does the Potency read?
Answer: The Potency was inconclusive: 3.26 µM [activator, partial curve, poor fit].

Question: For `COc1cccc(/C=C/C(=O)c2c(O)cc(C)oc2=O)c1O`, which “re-replication activation” value is on record?
Answer: Its value is inactive: 18.7%.

Question: Which “re-replication activation” value does the source give for `CCOC(=O)c1[nH]ncc1CN1CCCC(C(=O)c2ccc(OC)c(OC)c2)C1` (stereo not given) here?
Answer: The value was inactive: 7.03%.

Question: With `O=C(NCc1ccc(Cl)cc1)c1noc2c1CCCCC2` as the compound, how does the Potency read?
Answer: The Potency was inconclusive: 23.1 µM [activator, single point].

Question: Which Potency does the source give for `C=CCOc1c(Br)cc(/C=N/n2c(CC)n[nH]c2=S)cc1Br` here?
Answer: Its Potency is inconclusive: 20.6 µM [activator, single point].

Question: With `CCOc1ccc(N2CC(C(=O)Nc3ccc(N4CCOCC4)cc3)CC2=O)cc1` (stereo not given) as the compound, how does the Potency read?
Answer: The Potency was inconclusive: 7.31 µM [activator, full curve, poor fit].

Question: With `COc1ccccc1CNCC(=O)Nc1ccc(C(F)(F)F)cc1` as the compound, how does the Potency read?
Answer: Its Potency is inconclusive: 29.1 µM [activator, single point].

Question: Which Potency does the source give for `O=C(COC(=O)/C=C/c1ccc(Cl)cc1Cl)NCC1CCCO1` (stereo not given) here?
Answer: Its Potency is inconclusive: 2.31 µM [activator, partial curve].

Question: For `COc1cc(C2OC(c3cc(OC)c(OC)c(OC)c3)C(C)C2C)cc(OC)c1OC` (stereo not given), which Potency is on record?
Answer: The Potency was inconclusive: 3.66 µM [activator, single point].

Question: Which Potency does the source give for `CC(=O)c1cccc(NC(=O)c2cc(-c3ccc(F)cc3)on2)c1` here?
Answer: Its Potency is inconclusive: 18.4 µM [activator, single point].

Question: Which “re-replication activation” value does the source give for `O=C(CCNS(=O)(=O)c1ccccc1)N1CCCCCCC1` here?
Answer: Its value is inactive: -27.5%.

Question: Which “re-replication activation” value does the source give for `CCOC(=O)C1CCCN(C(=O)CC(C)c2ccccc2)C1` (stereo not given) here?
Answer: The value was inactive: 0.329%.

Question: Which “re-replication activation” value does the source give for `COc1ccc(CCNC(=O)CN(c2cc([N+](=O)[O-])ccc2OC)S(C)(=O)=O)cc1` here?
Answer: Its value is inactive: -2.67%.

Question: For `CCOC(=O)C(NC(=O)Nc1ccc(Cl)cn1)(Oc1ccccc1)C(F)(F)F` (stereo not given), which Potency is on record?
Answer: Its Potency is inconclusive: 25.9 µM [activator, partial curve, poor fit].

Question: With `COc1cc(-c2nc3ccc(C)cn3c2NCc2ccccc2)ccc1-c1cccc(Cl)c1` as the compound, how does the Potency read?
Answer: Its Potency is inconclusive: 16.4 µM [activator, single point].

Question: With `CCOc1ccc(CN2CCN(Cc3[nH]c4ccc(OC)cc4c3C)CC2CCO)cc1` (stereo not given) as the compound, how does the Potency read?
Answer: Its Potency is inconclusive: 6.51 µM [activator, single point].

Question: Which “re-replication activation” value does the source give for `CCN1C(=O)C(CC(=O)Nc2ccc(F)cc2)N(Cc2ccc3c(c2)OCO3)C1=S` (stereo not given) here?
Answer: The value was inactive: 0.582%.

Question: For `Cc1ccc(S(=O)(=O)N2CCN(C(=O)c3cc(S(=O)(=O)N(C)C)ccc3N3CCCC3)CC2)cc1`, which re-replication activation is on record?
Answer: The re-replication activation was inconclusive: -461% [activator].

Question: Which Potency does the source give for `CC1CN(C(=O)COC(=O)c2nn(-c3ccccc3)c(=O)c3ccccc23)CC(C)O1` (stereo not given) here?
Answer: Its Potency is inconclusive: 0.517 µM [activator, full curve, poor fit].

Question: For `COc1ccccc1/C=C/C(=O)c1c2c(c(C)[nH]c1=O)CCCC2`, which Potency is on record?
Answer: The Potency was inconclusive: 25.9 µM [activator, single point].

Question: With `CC(=O)Nc1ccc(-c2cc(NC(C)=O)n(-c3ccccc3)n2)cc1` as the compound, how does the “re-replication activation” value read?
Answer: Its value is inactive: 2.61%.

Question: With `CCCCC(=O)Nc1nnc(S(=O)(=O)N(CC)c2ccc(OC)cc2)s1` as the compound, how does the Potency read?
Answer: Its Potency is inconclusive: 23.1 µM [activator, single point].

Question: With `COC(=O)[C@@]1(C)[C@H]2C(=O)N(Cc3ccccc3)C(=O)[C@H]2[C@H]2CN=C(SCC3CC3)N21` as the compound, how does the Potency read?
Answer: The Potency was inconclusive: 3.66 µM [activator, single point].

Question: With `Cc1ccc2c(c1)N(C(=O)CSc1nncn1C)C(C)(C)c1ssc(=S)c1-2` as the compound, how does the Potency read?
Answer: The Potency was inconclusive: 29.1 µM [activator, partial curve, poor fit].

Question: For `COc1ccc(C(=O)NN(C)c2nc(C(F)(F)F)nc3ccccc23)cc1`, which Potency is on record?
Answer: Its Potency is inconclusive: 0.146 µM [activator, full curve, poor fit].

Question: For `CCc1ccccc1NC(=O)CC1S/C(=N\c2nccs2)N(CC)C1=O` (stereo not given), which “re-replication activation” value is on record?
Answer: Its value is inactive: 1.61%.

Question: Which Potency does the source give for `COc1ccc(OC)c(-c2nnc3n2N=C(c2ccc(OC)c(OC4CCOC4)c2)CS3)c1` (stereo not given) here?
Answer: The Potency was inconclusive: 0.146 µM [activator, full curve, poor fit].

Question: Which “re-replication activation” value does the source give for `CNC[C@@H](O)[C@@H](O)[C@H](O)[C@H](O)CO` here?
Answer: The value was inactive: -6.07%.

Question: With `CCOc1ccc(NC(=O)c2cc3cc4ccc(OC)cc4nc3o2)cc1` as the compound, how does the Potency read?
Answer: The Potency was inconclusive: 7.31 µM [activator, partial curve].

Question: For `COC(=O)c1cc(-c2cc(OC)ccc2OC)nc2c1c(=O)n(C)c(=O)n2Cc1ccccc1`, which Potency is on record?
Answer: The Potency was active: 2.31 µM.

Question: With `COc1ccccc1[C@@H]1C(c2cccc(C)c2)=NN(c2ccc(Br)cc2)[C@H]1C(=O)N1CCOC1=O` as the compound, how does the Potency read?
Answer: The Potency was active: 20.6 µM.

Question: Which Potency does the source give for `Cc1cc(C(=O)N/N=C/c2ccc([N+](=O)[O-])cc2)c2ccccc2n1` here?
Answer: The Potency was active: 13 µM.

Question: For `CC1(C)Oc2ccc3ccc(=O)oc3c2C(/C=N/O)C1=O` (stereo not given), which Potency is on record?
Answer: Its Potency is inconclusive: 23.1 µM [activator, single point].
